Literature values, collected in US20100240887A1, “New methods of producing HHT” (priority 2009, published 2010).
For at least one compound, name, drawing or mass did not settle the structure.

Assays:
[1] = early chronic phase CML patients, HHT then interferon-α; cited from earlier work
[2] = chronic-phase CML patients, HHT with interferon-α, median follow-up 26 months; cited from earlier work

For `COC(=O)C[C@](O)(CCCC(C)(C)O)C(=O)O[C@@H]1C(OC)=C[C@]23CCCN2CCc2cc4c(cc2[C@H]13)OCO4` [HHT, Homoharringtonine], the “patients achieved CHR” value [1] is listed as “Ninety-two” and the “estimated 2-year survival rate” value [2] is listed as 90%.
